Measured values taken from paper PMC6786873.

Amino acid sequences for entries named in this document (tags omitted).
UniProt O94915: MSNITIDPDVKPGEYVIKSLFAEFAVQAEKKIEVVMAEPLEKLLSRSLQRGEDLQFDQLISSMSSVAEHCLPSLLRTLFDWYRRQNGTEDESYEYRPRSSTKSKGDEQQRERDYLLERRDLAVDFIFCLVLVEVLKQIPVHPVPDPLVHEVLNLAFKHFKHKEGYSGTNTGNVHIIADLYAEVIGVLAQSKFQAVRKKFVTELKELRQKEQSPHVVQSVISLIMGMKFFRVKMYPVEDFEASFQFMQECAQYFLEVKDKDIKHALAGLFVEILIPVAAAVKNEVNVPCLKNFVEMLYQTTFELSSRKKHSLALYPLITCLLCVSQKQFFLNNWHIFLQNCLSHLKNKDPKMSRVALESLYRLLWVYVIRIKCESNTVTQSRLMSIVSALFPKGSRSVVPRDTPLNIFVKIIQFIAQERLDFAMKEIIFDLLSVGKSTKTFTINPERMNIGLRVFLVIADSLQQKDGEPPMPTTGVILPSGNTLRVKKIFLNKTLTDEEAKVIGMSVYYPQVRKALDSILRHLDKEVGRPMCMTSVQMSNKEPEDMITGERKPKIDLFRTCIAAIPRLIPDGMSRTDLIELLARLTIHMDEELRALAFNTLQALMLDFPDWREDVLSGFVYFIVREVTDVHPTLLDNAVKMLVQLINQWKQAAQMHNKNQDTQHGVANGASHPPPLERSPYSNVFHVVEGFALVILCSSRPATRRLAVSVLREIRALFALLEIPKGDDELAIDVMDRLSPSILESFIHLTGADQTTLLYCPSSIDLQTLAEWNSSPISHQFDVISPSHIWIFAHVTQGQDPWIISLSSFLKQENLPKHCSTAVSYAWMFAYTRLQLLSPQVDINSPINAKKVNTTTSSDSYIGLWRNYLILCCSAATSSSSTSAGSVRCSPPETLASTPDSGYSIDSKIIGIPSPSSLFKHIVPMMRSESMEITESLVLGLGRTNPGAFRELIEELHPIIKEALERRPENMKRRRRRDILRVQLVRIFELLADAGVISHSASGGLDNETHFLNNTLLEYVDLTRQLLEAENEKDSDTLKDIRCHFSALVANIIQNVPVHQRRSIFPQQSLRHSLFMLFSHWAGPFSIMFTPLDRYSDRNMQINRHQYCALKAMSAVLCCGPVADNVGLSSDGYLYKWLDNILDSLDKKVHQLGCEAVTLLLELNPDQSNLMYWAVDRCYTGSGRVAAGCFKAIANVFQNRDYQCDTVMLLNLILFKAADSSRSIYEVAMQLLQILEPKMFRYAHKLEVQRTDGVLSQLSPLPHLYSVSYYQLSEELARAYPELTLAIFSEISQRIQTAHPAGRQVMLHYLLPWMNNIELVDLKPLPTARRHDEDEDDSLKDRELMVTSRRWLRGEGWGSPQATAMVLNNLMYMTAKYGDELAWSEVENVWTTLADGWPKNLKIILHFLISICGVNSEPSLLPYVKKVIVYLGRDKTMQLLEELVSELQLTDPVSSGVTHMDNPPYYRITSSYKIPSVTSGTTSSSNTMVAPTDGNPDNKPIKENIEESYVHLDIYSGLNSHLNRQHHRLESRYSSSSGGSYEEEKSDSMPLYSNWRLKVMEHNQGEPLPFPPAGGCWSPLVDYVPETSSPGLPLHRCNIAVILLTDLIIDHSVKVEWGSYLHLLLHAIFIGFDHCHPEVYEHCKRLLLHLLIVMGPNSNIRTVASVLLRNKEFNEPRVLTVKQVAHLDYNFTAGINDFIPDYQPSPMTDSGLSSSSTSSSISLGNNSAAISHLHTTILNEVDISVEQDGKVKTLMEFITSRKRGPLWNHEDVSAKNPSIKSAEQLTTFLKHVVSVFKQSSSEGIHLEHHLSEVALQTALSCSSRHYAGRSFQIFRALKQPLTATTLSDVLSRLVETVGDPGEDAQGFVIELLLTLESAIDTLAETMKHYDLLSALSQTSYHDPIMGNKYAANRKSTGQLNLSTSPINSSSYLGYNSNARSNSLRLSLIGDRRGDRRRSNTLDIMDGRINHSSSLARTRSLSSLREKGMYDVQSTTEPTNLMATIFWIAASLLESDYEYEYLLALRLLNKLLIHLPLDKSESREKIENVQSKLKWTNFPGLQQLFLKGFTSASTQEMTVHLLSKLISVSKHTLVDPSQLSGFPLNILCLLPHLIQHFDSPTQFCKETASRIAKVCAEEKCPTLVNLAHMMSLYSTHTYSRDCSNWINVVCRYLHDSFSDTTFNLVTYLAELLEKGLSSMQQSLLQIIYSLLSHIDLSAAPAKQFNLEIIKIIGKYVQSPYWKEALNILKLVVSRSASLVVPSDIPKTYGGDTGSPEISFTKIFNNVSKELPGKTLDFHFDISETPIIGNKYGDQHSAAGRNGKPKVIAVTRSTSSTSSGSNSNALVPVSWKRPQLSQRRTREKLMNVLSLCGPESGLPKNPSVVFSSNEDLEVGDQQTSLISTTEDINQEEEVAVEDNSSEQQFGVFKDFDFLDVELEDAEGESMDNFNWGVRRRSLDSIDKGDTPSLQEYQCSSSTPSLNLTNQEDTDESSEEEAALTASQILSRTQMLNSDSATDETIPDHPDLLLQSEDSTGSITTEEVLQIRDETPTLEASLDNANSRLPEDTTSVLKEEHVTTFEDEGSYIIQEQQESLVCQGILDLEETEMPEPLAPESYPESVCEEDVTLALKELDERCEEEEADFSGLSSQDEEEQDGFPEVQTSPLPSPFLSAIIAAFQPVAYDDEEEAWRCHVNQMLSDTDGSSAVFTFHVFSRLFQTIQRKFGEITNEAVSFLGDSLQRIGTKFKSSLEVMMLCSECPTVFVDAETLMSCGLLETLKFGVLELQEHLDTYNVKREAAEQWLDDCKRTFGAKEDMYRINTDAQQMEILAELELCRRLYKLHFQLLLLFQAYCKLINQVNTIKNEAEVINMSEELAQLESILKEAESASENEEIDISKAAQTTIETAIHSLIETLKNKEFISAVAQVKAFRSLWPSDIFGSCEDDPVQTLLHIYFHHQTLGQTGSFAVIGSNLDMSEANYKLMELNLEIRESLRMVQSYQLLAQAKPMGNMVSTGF
UniProt P19525: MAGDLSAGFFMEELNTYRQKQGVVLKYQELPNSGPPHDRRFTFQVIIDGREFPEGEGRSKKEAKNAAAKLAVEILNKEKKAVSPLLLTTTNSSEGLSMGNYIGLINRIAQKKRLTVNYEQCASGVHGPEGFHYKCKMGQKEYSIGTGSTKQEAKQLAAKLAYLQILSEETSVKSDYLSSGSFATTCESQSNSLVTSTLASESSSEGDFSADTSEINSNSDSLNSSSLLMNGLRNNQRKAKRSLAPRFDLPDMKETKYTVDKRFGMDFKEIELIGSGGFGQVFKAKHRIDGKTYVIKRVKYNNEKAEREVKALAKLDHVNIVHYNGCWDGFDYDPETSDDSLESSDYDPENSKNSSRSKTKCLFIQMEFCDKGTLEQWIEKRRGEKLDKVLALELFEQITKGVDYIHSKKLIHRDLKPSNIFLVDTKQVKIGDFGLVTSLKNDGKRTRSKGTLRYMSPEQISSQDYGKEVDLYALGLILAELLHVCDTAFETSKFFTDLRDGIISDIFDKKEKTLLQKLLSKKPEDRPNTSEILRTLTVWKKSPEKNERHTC
UniProt P25788: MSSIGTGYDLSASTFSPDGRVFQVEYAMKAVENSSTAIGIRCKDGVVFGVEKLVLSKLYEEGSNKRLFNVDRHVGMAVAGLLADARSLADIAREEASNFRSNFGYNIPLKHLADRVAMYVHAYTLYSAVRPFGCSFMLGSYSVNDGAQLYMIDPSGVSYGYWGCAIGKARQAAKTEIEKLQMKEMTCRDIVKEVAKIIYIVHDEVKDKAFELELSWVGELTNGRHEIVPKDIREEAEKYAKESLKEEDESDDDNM

Molecular target: T1, NHLRC2 (NHL-repeat-containing protein 2) (human (endogenous in THP-1)) (UniProt Q8NBF2)
T1 sequence: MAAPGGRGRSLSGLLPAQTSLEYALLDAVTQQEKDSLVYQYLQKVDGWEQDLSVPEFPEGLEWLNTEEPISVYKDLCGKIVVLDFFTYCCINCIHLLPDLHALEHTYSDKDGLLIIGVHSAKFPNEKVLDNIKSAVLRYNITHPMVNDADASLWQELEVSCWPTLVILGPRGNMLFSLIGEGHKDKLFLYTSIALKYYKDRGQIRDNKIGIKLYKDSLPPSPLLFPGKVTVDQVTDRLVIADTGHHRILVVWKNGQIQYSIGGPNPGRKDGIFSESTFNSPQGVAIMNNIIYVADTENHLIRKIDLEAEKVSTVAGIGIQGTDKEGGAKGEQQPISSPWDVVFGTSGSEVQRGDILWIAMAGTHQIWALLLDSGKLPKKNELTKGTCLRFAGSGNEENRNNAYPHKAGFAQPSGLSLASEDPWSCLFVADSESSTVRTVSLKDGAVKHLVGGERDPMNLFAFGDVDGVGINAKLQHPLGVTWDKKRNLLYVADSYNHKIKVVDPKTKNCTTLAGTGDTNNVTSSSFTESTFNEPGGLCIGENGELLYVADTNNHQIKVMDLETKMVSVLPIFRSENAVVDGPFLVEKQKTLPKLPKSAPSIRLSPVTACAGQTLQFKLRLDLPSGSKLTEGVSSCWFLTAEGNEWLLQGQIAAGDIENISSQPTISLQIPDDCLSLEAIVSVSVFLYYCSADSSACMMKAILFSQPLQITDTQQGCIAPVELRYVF
Test: affinity purification with mass spectrometry; anti-NHLRC2 antibody (HPA038493) on nondenaturing whole-cell lysates of WT and NHLRC2 mutant THP-1 cells, protein A magnetic beads, IgG isotype control; eluates separated on Tris-glycine gel, LC-MS/MS; proteins with quantitative value >0 in the IgG control removed

Molecule: FRYL (FRY like transcription coactivator) (from UniProt O94915 1-3013)
- binding: binds

Molecule: EIF2AK2 (eukaryotic translation initiation factor 2 alpha kinase 2) (from UniProt P19525 1-551)
- binding: binds

Molecule: PSMA3 (from UniProt P25788 1-255)
- binding: binds

B1: KLHL13 (Kelch like family member 13) (protein, UniProt Q9P2N7 1-655)
chain: MPLKWKTSSPAIWKFPVPVLKTSRSTPLSPAYISLVEEEDQHMKLSLGGSEMGLSSHLQSSKAGPTRIFTSNTHSSVVLQGFDQLRLEGLLCDVTLMPGDTDDAFPVHRVMMASASDYFKAMFTGGMKEQDLMCIKLHGVSKVGLRKIIDFIYTAKLSLNMDNLQDTLEAASFLQILPVLDFCKVFLISGVTLDNCVEVGRIANTYNLTEVDKYVNSFVLKNFPALLSTGEFLKLPFERLAFVLSSNSLKHCTELELFKATCRWLRLEEPRMDFAAKLMKNIRFPLMTPQELINYVQTVDFMRTDNTCVNLLLEASNYQMMPYMQPVMQSDRTAIRSDTTHLVTLGGVLRQQLVVSKELRMYDEKAHEWKSLAPMDAPRYQHGIAVIGNFLYVVGGQSNYDTKGKTAVDTVFRFDPRYNKWMQVASLNEKRTFFHLSALKGYLYAVGGRNAAGELPTVECYNPRTNEWTYVAKMSEPHYGHAGTVYGGVMYISGGITHDTFQKELMCFDPDTDKWIQKAPMTTVRGLHCMCTVGERLYVIGGNHFRGTSDYDDVLSCEYYSPILDQWTPIAAMLRGQSDVGVAVFENKIYVVGGYSWNNRCMVEIVQKYDPDKDEWHKVFDLPESLGGIRACTLTVFPPEETTPSPSRESPLSAP
- binding: binds

No constants are given. Whether binding was seen depends on the method and setting. In cells and extracts the contact can be indirect. A yes stands for co-enrichment or nearness to the bait. Other partners may have been found.
